Results on two molecules are retold here after paper PMC6811539, “Minute-scale persistence of a GPCR conformation state triggered by non-cognate G protein interactions primes signaling” (Nature Communications, 2019).

No constants are given. Whether binding was seen depends on the method and setting. In cells and extracts the contact can be indirect. Some entries that bind do so weakly or less than the wild type.

Experiment [1] has as its target β2-AR-mCerulean (human) (UniProt P07550). In words: pull-down; competition pull-down: 30 μM bioQp with 30 μM Qp or 50 μM PC-Qp, 100 μM isoproterenol, native membranes with 10 nM β2-mCer, streptavidin-coated magnetic beads; without UV or with UV exposure for 2 min before the beads; only the binder purified.
The target is the same in experiment [2]. As to the kind of experiment: pull-down; release step of the binding-and-release assay: 100 μM unlabeled Qp/Sp added to the precipitated beads holding β2-mCer through the biotinylated peptide; released receptor from mCer fluorescence of the supernatant, within 30 s; only the binder purified.

B1: N-term fragment of PC-Qp after UV irradiation (peptide)
peptide: DTENIRFVFAAVKDTILQLNLKE
Regarding B1, the binding entry with β2-AR-mCerulean (human) [1] is listed as “no binding (tested: 50 μM PC-Qp, UV-irradiated for 2 min)”.

B2: Qp (Gαq C terminus peptide) (peptide)
peptide: DTENIRFVFAAVKDTILQLNLKEYNLV
As for B2, in the experiment with β2-AR-mCerulean (human) [2], the binding result is “binds weakly”.
